Test results reported in PubChem BioAssay AID587 (National Center for Advancing Translational Sciences (NCATS), 2007).
The whole screen tested about 59,000 compounds, of which about 35 (0.06%) were called active. Inconclusive results, whose numbers are uncertain, are shown with a selection of clear calls. Cut-off read from the data, not from the text of the source: active = max dye-equivalent concentration above about 10 nM; inconclusive = between about 1.1 nM and that limit; inactive = weaker than that.

experiment: qHTS Assay for Spectroscopic Profiling in Texas Red Spectral Region; conditions: Compound fluorescence, Texas Red channel, 547/618 nm; stronger effect = higher value
How it was run: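 Spectral interference profiling: each compound concentration's relative fluorescence, read with a 547 nm excitation and 618 nm emission filter pair, was normalized to a per-plate Texas Red standard curve.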

| Compound | max dye-equivalent concentration |
| --- | --- |
| COc1ccc(CCN(Cc2cc3cc4c(cc3[nH]c2=O)OCO4)C(C)=O)cc1OC | inactive |
| CCCC(NC(=O)c1ccccc1)c1nc2ccccc2n1Cc1ccc(C(=O)OC)o1 (stereo unspecified) | inconclusive: 1.6 nM |
| Cc1c(NC(=O)CCC2CCCCC2)c(=O)n(-c2ccccc2)n1C | inconclusive: 1.7 nM |
| COc1ccc(Cl)cc1CSc1n[nH]c(C)n1 | inconclusive: 2.1 nM |
| O=c1c2ccccc2ncn1Cc1nc2ccccc2s1 | inconclusive: 1.6 nM |
| COc1ccc(Cl)cc1-n1c(C)cc(C(=O)O)c1C | inconclusive: 1.1 nM |
| COc1ccc(NC(=O)N2CCC3(CC2)CCN(C(=O)c2cccn2C)CC3)cc1 | inactive |
| COC(=O)c1ccc2c(c1)nc(C)n2CCO | inconclusive: 1.8 nM |
| CC(C)C(=O)N1CCN(c2ccccc2NC(=O)Cc2ccc(Cl)cc2)CC1 | inconclusive: 1.3 nM |
| CCc1c(C)nc(Nc2nc(C)c3cc(OC)ccc3n2)[nH]c1=O | inconclusive: 1.4 nM |
| CCOC(=O)C(NC(C)=O)(OCc1ccc(F)cc1)C(F)(F)F (stereo unspecified) | inactive |
| Cc1cccc(OCC(O)Cn2c(-n3nc(C)cc3C)nc3c2c(=O)[nH]c(=O)n3C)c1 (stereo unspecified) | inconclusive: 1.2 nM |
| COc1ccc(N2C(=NC(C)=O)SC3CS(=O)(=O)CC32)cc1OC (stereo unspecified) | inconclusive: 1.1 nM |
| Cc1cc(C)c2c(CC(=O)NCc3ccco3)coc2c1 | inconclusive: 1.8 nM |
| Cc1c(NC(=O)c2ccccc2NS(=O)(=O)c2ccc(F)cc2)c(=O)n(-c2ccccc2)n1C | inconclusive: 3.5 nM |
| O=C(NCC1CCCO1)C1c2ccccc2C(=O)N1Cc1ccc2c(c1)OCO2 (stereo unspecified) | inconclusive: 1.5 nM |
| O=c1cc(O)nc(SC23CC4CC(CC(C4)C2)C3)[nH]1 | inconclusive: 1.1 nM |
| C=C(CO)[C@H]1Cc2c(ccc3c2O[C@H]2COc4cc(OC)c(OC)cc4[C@@H]2C3=O)O1 | inactive |
| N#Cc1c(N)n(CCNC(=O)c2cccs2)c2nc3ccccc3nc12 | inconclusive: 1.4 nM |
| CC(C)N1C(=S)SC(C)(C)C1NO (stereo unspecified) | inconclusive: 1.3 nM |
| CC(=O)c1ccc2c3c(cccc13)C(=O)N(c1c(C)nn(C)c1C)C2=O | inconclusive: 1.2 nM |
| CCN(CC)c1ccc2c(c1)oc(=O)c1c(Cl)cc(=O)oc12 | inactive |

| Compound | max dye-equivalent concentration |
| --- | --- |
| Cc1ccc(-c2cc(-c3nnc(SCC(=O)N(C)CCC#N)n3N)c3ccccc3n2)cc1 | inactive |
| Cc1ccc(S(=O)(=O)N2CCN(C(=O)c3ccc(OCc4c(C)noc4C)cc3)CC2)cc1 | inconclusive: 1.3 nM |
| COc1cc2c(cc1OC)CN(C(=O)NS(=O)(=O)c1ccc(C)cc1)CC2 | inconclusive: 1.4 nM |
| CC1(C)CC(=O)C(Sc2nnc(-c3ccc(O)cc3)n2CC2CCCO2)C(=O)C1 (stereo unspecified) | inconclusive: 2.4 nM |
| CC(c1ccccc1)N1C(=O)CC(Sc2ncccc2C(=O)O)C1=O (stereo unspecified) | inconclusive: 1.2 nM |
| CC(=O)CSCc1ccccn1 | inactive |
| CCOC(=O)C1CCCN(c2nc3ccccc3nc2C(C#N)C(=O)OCCOC)C1 (stereo unspecified) | inactive |
| CC1CCCN(Cc2nc3c(c(=O)n(C)c(=O)n3C)n2CCc2ccccc2)C1 (stereo unspecified) | inconclusive: 1.2 nM |
| CCOC(=O)N1CCN(c2nc(C)c3c(n2)CC(C)CC3=O)CC1 (stereo unspecified) | inconclusive: 1.1 nM |
| COc1ccc(C2C(C(=O)NC(C)C)c3ccccc3C(=O)N2C)cc1OC (stereo unspecified) | inactive |
| COc1cc(NC(=O)CCc2ccccc2)nc(OC)n1 | inconclusive: 1.3 nM |
| N#Cc1cccc(NC(=O)N2CC3(CCN(C(=O)c4ccco4)CC3)C2)c1 | inactive |
| Clc1ccccc1-c1ccc2ncnc(NCCN3CCOCC3)c2c1 | inactive |
| O=C1CCC/C1=c1\s/c(=C\c2cccnc2)c(=O)n1-c1ccccc1 | inconclusive: 1.1 nM |
| Cn1c(=O)c2c(nc(SCc3nn[nH]n3)n2Cc2ccccc2F)n(C)c1=O | inconclusive: 1.3 nM |
| COCCCN(C(C)=O)c1nc(-c2ccc(OC)cc2)cs1 | inconclusive: 1.1 nM |
| Cn1c(=O)c2c(nc(CN3CCC(C(N)=O)CC3)n2CCc2ccccc2)n(C)c1=O | inconclusive: 1.4 nM |
| NC(=O)N[C@H]1NC(=O)NC1=O | inconclusive: 1.2 nM |
| NS(=O)(=O)c1ccc(NC(=O)CCc2ccccc2)cc1 | inconclusive: 1.5 nM |
| CC(=O)C1C(=O)CC(C)(O)C(C(C)=O)C1c1ccc(N(C)C)cc1 (stereo unspecified) | inconclusive: 1.8 nM |
| O=C(O)CCSCc1ccccc1F | inconclusive: 1.1 nM |
| CC1(C)CC(=O)C2=C(C1)N(Cc1cccnc1)C(=O)C2(NC(=O)C1CC1)C(F)(F)F (stereo unspecified) | inconclusive: 1.7 nM |

| Compound | max dye-equivalent concentration |
| --- | --- |
| O=C(c1cnccn1)N1CCC[C@@]2(CCN(Cc3ccccc3)C2)C1 | inactive |
| O=C(Nc1ccc(O)cc1C(=O)O)c1cccc(Br)c1 | inconclusive: 1.4 nM |
| Cc1ccc(S(=O)(=O)Cc2cn3cccnc3n2)cc1 | inconclusive: 1.5 nM |
| CCN1CCN(S(=O)(=O)c2ccc(OC)c(Br)c2)CC1 | inconclusive: 1.7 nM |
| Cc1ccc(C2(C)NC(=O)N(CC(=O)Nc3ccc4c(c3)OCO4)C2=O)cc1 (stereo unspecified) | inconclusive: 1.3 nM |
| CCSCCCC(=O)O | inactive |
| CCOc1ccc(S(=O)(=O)N(C)c2ccc(OCC(=O)OCc3c(C)noc3C)cc2)cc1 | inconclusive: 1.5 nM |
| C=CCn1c(=O)c2ccccc2n2c(SCc3nnc(-c4ccccc4Br)o3)nnc12 | inconclusive: 2.4 nM |
| Cn1c(=O)n(C)c2cc(C(=O)Nc3ccc4c(c3)OCO4)ccc21 | inconclusive: 1.5 nM |
| CNCCCN1c2ccccc2CCc2ccccc21 | inconclusive: 1.2 nM |
| COc1ccc(S(=O)(=O)NCCC(=O)NC2CCCCCCC2)cc1 | inactive |
| CCc1c(C)sc(NC(=O)c2ccco2)c1C(=O)N1CCCCC1 | inconclusive: 1.1 nM |
| CN1CCN(c2ccccc2NC(=O)c2ccc(OCc3ccccc3)cc2)CC1 | inconclusive: 1.2 nM |
| Cc1ccc(-n2c(=O)[nH]c3c(C(N)=O)nc(CC(C)C)nc32)cc1 | inconclusive: 1.1 nM |
| COc1ccc(NC(=O)N2CC3(CCN(S(C)(=O)=O)CC3)C2)cc1 | inactive |
| N#C[C@@H]1[C@@H]2C(=O)N(c3ccc4c(c3)OCCO4)C(=O)[C@@H]2C2c3ccccc3C=CN21 (stereo partly specified) | inconclusive: 6 nM |
| COc1ccc(-c2csc(/C(C#N)=C(\O)CSc3nccn3C)n2)cc1OC | inconclusive: 2.4 nM |
| Cc1ccc(-c2nc(C#N)c(NCCc3ccccn3)o2)cc1 | inconclusive: 1.6 nM |
| O=C(OCc1nnc(-c2ccccc2)o1)c1ccc2ccccc2n1 | inconclusive: 1.2 nM |
| Cn1c2c(c(=O)n(C)c1=O)CN(Cc1ccc3c(c1)OCO3)CN2 | inconclusive: 1.2 nM |
| Cc1ccc(C(CC(=O)c2ccco2)SCCO)cc1 (stereo unspecified) | inconclusive: 1.4 nM |
| O=C(CSc1ccc2nnc(-c3ccccc3)n2n1)NCC1CCCO1 (stereo unspecified) | inconclusive: 1.8 nM |

| Compound | max dye-equivalent concentration |
| --- | --- |
| COc1ccc(CC(=O)Nc2cccc(C(=O)O)c2C)cc1 | inconclusive: 1.1 nM |
| COC(=O)c1ccc(CNC(=O)CSc2nc3sc(C)c(C)c3c(=O)n2C)o1 | inconclusive: 1.8 nM |
| CN1C(=O)N(C)C(NC(=O)Nc2ccccc2)C1NC(=O)Nc1ccccc1 (stereo unspecified) | inconclusive: 2 nM |
| CCOC(=O)c1cnc(-n2cc(C)cn2)nc1NCc1ccc2c(c1)OCO2 | inconclusive: 1.4 nM |
| CC(C)Cn1cc(C(=O)NCc2cccs2)c2c3ccccc3n(C)c2c1=O | inconclusive: 1.1 nM |
| Cc1cc(C)cc(N(C(=O)C2CCCC2)C2C=CS(=O)(=O)C2)c1 (stereo unspecified) | inconclusive: 1.1 nM |
| Cc1[nH]nc2c1C(c1ccoc1)C(C#N)=C(N)O2 (stereo unspecified) | inconclusive: 1.2 nM |
| CCOC(=O)C1(N(CC)CC)Sc2cc(C)ccc2NC1=O (stereo unspecified) | inconclusive: 1.1 nM |
| O[C@@H](c1cc(C(F)(F)F)nc2c(Cl)cc(Cl)cc12)[C@@H]1CCCCN1 | inactive |
| CC1CCCN(C(=O)COC(=O)c2n[nH]c3ccccc23)C1 (stereo unspecified) | inconclusive: 1.5 nM |
| CCCc1nnc(NC(=O)c2c(O)c3cccc4c3n(c2=O)CC4)s1 | inconclusive: 1.1 nM |
| O=C(COc1ccccc1)N1CCN(c2nnc(-c3ccccc3)c3ccccc23)CC1 | inconclusive: 1.2 nM |
| OC(CN1CCOCC1)C12CC3CC(CC(C3)C1)C2 (stereo unspecified) | inconclusive: 2.1 nM |
| O=C1c2ccccc2C(=O)c2c(Nc3cc4c5c(ccc6c7ccc8c9c(cc(Nc%10cccc%11c%10C(=O)c%10ccccc%10C%11=O)c(c3c56)c97)-c3ccccc3C8=O)C(=O)c3ccccc3-4)cccc21 | inactive |
| Cc1cc(NC(=O)CCC(=O)N(CCC(C)C)CC(=O)NCC2CCCO2)no1 (stereo unspecified) | inconclusive: 1.1 nM |
| Cc1nccn1-c1c2c(c(C#N)c3nc4ccccc4n13)CCCC2 | inconclusive: 1.2 nM |
| O=C(c1ccco1)N1CCN(C(c2ccccc2Cl)c2nnnn2Cc2ccco2)CC1 (stereo unspecified) | inconclusive: 1.1 nM |
| CC(C)c1nc2oc3c(N4CCNCC4)ncnc3c2c2c1CCC2 | inconclusive: 1.1 nM |
| O=C(CS(=O)(=O)Cc1ccccc1)NCC1CCCO1 (stereo unspecified) | inconclusive: 1.7 nM |
| COc1ccc(Oc2nc(C)cc(C)c2C#N)cc1 | inconclusive: 1.6 nM |

26 successive records out of the list so far, quoted:

| Compound | max dye-equivalent concentration |
| --- | --- |
| O=c1cc(O)nc(SC23CC4CC(CC(C4)C2)C3)[nH]1 | inconclusive: 1.1 nM |
| C=C(CO)[C@H]1Cc2c(ccc3c2O[C@H]2COc4cc(OC)c(OC)cc4[C@@H]2C3=O)O1 | inactive |
| N#Cc1c(N)n(CCNC(=O)c2cccs2)c2nc3ccccc3nc12 | inconclusive: 1.4 nM |
| CC(C)N1C(=S)SC(C)(C)C1NO (stereo unspecified) | inconclusive: 1.3 nM |
| CC(=O)c1ccc2c3c(cccc13)C(=O)N(c1c(C)nn(C)c1C)C2=O | inconclusive: 1.2 nM |
| CCN(CC)c1ccc2c(c1)oc(=O)c1c(Cl)cc(=O)oc12 | inactive |
| Cc1ccc(-c2cc(-c3nnc(SCC(=O)N(C)CCC#N)n3N)c3ccccc3n2)cc1 | inactive |
| Cc1ccc(S(=O)(=O)N2CCN(C(=O)c3ccc(OCc4c(C)noc4C)cc3)CC2)cc1 | inconclusive: 1.3 nM |
| COc1cc2c(cc1OC)CN(C(=O)NS(=O)(=O)c1ccc(C)cc1)CC2 | inconclusive: 1.4 nM |
| CC1(C)CC(=O)C(Sc2nnc(-c3ccc(O)cc3)n2CC2CCCO2)C(=O)C1 (stereo unspecified) | inconclusive: 2.4 nM |
| CC(c1ccccc1)N1C(=O)CC(Sc2ncccc2C(=O)O)C1=O (stereo unspecified) | inconclusive: 1.2 nM |
| CC(=O)CSCc1ccccn1 | inactive |
| CCOC(=O)C1CCCN(c2nc3ccccc3nc2C(C#N)C(=O)OCCOC)C1 (stereo unspecified) | inactive |
| CC1CCCN(Cc2nc3c(c(=O)n(C)c(=O)n3C)n2CCc2ccccc2)C1 (stereo unspecified) | inconclusive: 1.2 nM |
| CCOC(=O)N1CCN(c2nc(C)c3c(n2)CC(C)CC3=O)CC1 (stereo unspecified) | inconclusive: 1.1 nM |
| COc1ccc(C2C(C(=O)NC(C)C)c3ccccc3C(=O)N2C)cc1OC (stereo unspecified) | inactive |
| COc1cc(NC(=O)CCc2ccccc2)nc(OC)n1 | inconclusive: 1.3 nM |
| N#Cc1cccc(NC(=O)N2CC3(CCN(C(=O)c4ccco4)CC3)C2)c1 | inactive |
| Clc1ccccc1-c1ccc2ncnc(NCCN3CCOCC3)c2c1 | inactive |
| O=C1CCC/C1=c1\s/c(=C\c2cccnc2)c(=O)n1-c1ccccc1 | inconclusive: 1.1 nM |
| Cn1c(=O)c2c(nc(SCc3nn[nH]n3)n2Cc2ccccc2F)n(C)c1=O | inconclusive: 1.3 nM |
| COCCCN(C(C)=O)c1nc(-c2ccc(OC)cc2)cs1 | inconclusive: 1.1 nM |
| Cn1c(=O)c2c(nc(CN3CCC(C(N)=O)CC3)n2CCc2ccccc2)n(C)c1=O | inconclusive: 1.4 nM |
| NC(=O)N[C@H]1NC(=O)NC1=O | inconclusive: 1.2 nM |
| NS(=O)(=O)c1ccc(NC(=O)CCc2ccccc2)cc1 | inconclusive: 1.5 nM |
| CC(=O)C1C(=O)CC(C)(O)C(C(C)=O)C1c1ccc(N(C)C)cc1 (stereo unspecified) | inconclusive: 1.8 nM |
